Measured values published in patent US8263592B2, “Equilibrative nucleoside transporter ENT1 inhibitors” (Janssen Pharmaceutica NV, priority 2007, dated 2012).
The structures given here were assigned with low confidence; some may be wrong.

Sequences of proteins named here, by UniProt entry; tags and fusion partners are left off.
UniProt Q99808, whole entry: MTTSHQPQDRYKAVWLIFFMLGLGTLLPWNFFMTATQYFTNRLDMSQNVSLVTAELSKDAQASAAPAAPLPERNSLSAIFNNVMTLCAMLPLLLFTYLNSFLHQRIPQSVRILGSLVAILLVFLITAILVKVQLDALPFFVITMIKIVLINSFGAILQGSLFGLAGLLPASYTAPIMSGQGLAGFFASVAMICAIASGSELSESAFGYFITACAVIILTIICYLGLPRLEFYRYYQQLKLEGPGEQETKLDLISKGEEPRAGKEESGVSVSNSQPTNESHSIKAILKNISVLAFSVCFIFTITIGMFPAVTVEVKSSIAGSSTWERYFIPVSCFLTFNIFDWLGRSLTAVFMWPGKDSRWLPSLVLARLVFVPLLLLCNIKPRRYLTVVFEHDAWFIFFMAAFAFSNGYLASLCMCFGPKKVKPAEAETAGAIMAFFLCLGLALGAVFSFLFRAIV

Molecular target: human ENT1 transporter (Homo sapiens, UniProt Q99808)
Experiment: hENT1-NBMPR-ERYTH binding assay ([3H]NBMPR, human erythrocytes)
Conditions: [3H]NBMPR 1 nM, washed human red blood cells 1:200, 30 minutes at room temperature; pIC50=-log(IC50)

Row | pIC50 values for ENT1 transporter inhibition | Structure (SMILES)
1 | 8.56 | O=C1CC2(CCN(CCNC(=O)c3c(Cl)cccc3Cl)CC2)Oc2cc(NC3CCOCC3)c(Cl)cc21
2 | 9.23 | CC(=O)N1CCC(Oc2cc3c(cc2Cl)C(=O)CC2(CCN(CCNC(=O)c4c(Cl)cccc4Cl)CC2)O3)CC1 [100]
